The supplement of paper PMC10849652
The list shows a part of the results.

By UniProt entry, the sequences of proteins in these tests, tags left out. Where a name states a change or a piece, a line headed by the entry shows the natural chain unless it says otherwise.
UniProt O43772: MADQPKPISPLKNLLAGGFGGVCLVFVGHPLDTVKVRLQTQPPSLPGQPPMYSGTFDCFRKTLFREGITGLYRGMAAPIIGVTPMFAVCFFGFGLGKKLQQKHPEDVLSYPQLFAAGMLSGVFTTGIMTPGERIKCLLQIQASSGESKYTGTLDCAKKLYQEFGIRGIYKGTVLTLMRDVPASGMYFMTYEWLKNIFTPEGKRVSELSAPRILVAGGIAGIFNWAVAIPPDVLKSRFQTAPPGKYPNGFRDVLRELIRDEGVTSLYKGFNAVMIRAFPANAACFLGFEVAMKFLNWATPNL
UniProt Q9BWU0: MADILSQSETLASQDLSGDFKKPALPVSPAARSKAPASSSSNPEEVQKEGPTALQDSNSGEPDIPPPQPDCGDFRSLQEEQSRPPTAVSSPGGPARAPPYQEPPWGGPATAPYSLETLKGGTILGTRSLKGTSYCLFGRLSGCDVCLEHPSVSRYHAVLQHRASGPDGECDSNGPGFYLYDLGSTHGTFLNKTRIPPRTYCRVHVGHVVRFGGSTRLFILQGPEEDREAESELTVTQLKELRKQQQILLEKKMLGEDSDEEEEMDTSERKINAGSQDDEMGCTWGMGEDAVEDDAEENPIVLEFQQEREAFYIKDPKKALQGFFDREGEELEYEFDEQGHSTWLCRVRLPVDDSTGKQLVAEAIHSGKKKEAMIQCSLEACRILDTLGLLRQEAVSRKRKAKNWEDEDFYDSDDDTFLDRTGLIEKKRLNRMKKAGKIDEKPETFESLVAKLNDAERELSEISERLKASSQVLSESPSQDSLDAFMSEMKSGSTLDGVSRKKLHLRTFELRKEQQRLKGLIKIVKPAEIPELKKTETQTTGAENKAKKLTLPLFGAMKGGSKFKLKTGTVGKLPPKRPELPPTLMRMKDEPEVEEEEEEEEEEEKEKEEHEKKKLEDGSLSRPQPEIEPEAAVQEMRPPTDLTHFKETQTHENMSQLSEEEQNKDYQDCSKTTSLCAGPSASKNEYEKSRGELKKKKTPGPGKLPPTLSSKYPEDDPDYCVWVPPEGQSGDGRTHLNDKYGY
UniProt Q8TAD4: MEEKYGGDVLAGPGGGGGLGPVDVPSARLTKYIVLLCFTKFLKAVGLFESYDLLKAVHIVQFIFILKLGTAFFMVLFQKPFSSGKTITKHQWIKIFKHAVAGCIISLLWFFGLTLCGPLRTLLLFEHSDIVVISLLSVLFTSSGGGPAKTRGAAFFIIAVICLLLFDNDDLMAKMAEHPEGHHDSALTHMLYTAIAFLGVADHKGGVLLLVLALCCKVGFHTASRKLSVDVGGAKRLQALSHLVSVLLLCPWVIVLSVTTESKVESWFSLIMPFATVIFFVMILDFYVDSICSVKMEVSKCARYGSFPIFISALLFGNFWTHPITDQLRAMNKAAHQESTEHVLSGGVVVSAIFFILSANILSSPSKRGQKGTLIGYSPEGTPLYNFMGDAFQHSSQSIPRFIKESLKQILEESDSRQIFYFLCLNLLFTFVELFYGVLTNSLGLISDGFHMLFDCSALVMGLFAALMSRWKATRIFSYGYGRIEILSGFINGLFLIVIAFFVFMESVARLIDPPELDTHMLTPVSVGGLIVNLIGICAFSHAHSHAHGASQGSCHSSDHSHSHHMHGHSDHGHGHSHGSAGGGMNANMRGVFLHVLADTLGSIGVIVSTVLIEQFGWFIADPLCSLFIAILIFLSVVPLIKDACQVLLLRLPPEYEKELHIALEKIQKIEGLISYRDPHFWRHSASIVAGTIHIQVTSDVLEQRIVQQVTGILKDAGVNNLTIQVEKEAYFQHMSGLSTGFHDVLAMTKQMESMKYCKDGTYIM
UniProt P12235: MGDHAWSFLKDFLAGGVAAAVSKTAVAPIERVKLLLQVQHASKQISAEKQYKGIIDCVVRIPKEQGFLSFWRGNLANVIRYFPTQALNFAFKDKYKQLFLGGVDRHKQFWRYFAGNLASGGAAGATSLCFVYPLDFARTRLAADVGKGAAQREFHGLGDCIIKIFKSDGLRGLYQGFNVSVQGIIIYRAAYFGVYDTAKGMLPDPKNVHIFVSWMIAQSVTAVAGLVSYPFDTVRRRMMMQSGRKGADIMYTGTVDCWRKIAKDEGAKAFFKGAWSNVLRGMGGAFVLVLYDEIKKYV
UniProt Q96AG3: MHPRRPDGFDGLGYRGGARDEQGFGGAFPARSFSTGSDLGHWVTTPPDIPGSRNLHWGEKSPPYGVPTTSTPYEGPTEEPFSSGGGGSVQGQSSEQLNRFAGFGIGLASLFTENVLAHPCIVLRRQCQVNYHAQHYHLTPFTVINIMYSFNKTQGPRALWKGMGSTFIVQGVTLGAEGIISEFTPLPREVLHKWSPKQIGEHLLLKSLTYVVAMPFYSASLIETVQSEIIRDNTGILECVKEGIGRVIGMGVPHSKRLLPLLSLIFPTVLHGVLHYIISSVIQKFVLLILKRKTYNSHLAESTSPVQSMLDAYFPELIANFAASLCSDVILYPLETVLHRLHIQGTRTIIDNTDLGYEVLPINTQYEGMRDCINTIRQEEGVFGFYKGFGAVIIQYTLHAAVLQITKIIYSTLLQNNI
UniProt P43003, whole entry, looked up: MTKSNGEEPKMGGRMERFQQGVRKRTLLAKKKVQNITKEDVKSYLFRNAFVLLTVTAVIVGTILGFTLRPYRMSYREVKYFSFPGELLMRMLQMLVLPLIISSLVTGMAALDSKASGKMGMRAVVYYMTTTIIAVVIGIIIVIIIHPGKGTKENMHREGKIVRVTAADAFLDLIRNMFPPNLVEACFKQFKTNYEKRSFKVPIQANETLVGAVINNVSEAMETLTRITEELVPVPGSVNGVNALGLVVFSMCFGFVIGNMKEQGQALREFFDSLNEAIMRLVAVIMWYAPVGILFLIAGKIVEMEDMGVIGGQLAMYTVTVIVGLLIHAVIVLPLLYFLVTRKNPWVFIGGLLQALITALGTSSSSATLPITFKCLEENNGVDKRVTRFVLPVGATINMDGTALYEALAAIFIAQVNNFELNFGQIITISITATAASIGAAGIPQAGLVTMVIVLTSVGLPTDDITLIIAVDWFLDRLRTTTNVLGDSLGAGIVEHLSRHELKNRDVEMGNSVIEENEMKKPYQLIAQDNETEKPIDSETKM
UniProt P08195: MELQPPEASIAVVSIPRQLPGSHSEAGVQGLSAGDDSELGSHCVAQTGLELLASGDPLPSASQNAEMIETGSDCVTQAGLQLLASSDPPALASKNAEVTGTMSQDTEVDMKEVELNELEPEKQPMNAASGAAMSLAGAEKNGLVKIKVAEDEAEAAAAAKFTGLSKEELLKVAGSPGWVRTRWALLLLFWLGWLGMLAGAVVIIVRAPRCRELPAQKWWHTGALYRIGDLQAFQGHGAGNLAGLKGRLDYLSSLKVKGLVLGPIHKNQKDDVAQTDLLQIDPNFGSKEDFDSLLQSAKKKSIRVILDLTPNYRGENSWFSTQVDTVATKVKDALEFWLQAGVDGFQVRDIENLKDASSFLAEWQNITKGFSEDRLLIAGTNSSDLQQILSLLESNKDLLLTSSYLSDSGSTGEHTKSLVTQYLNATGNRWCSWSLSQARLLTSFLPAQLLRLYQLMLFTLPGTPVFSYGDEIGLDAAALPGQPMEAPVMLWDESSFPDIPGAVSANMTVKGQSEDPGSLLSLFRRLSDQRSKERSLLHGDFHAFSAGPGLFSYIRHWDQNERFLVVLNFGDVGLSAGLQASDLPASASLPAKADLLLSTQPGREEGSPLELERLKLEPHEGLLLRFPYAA
UniProt O00400: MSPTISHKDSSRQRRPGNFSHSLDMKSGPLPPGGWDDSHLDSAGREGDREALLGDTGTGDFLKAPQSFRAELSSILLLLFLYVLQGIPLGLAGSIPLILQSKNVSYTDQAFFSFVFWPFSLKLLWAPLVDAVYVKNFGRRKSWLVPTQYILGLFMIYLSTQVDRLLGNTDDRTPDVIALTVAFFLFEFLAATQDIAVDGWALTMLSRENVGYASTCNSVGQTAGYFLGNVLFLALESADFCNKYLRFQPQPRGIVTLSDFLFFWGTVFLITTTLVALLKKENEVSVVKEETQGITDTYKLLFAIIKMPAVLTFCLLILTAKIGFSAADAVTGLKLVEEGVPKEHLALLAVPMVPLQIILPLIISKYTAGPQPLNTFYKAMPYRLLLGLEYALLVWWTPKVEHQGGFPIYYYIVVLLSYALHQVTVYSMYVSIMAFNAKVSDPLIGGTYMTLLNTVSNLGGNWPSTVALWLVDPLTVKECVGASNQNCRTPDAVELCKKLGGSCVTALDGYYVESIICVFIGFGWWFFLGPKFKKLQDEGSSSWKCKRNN
UniProt F5GZS6: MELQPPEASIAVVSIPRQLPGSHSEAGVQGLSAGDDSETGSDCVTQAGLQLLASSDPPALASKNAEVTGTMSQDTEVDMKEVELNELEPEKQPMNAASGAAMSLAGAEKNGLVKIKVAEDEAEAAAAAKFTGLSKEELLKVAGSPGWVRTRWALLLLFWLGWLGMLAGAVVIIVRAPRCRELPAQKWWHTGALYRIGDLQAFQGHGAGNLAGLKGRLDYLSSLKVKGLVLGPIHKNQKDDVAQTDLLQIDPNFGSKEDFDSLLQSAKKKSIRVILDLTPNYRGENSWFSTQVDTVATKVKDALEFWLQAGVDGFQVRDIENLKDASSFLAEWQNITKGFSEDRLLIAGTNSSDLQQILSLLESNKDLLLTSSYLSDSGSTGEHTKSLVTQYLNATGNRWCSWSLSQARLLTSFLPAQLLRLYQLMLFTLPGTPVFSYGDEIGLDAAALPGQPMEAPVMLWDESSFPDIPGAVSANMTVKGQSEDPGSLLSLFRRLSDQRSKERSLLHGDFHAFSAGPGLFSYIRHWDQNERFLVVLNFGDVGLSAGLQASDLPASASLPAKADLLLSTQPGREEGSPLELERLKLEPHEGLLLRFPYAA
UniProt P04920: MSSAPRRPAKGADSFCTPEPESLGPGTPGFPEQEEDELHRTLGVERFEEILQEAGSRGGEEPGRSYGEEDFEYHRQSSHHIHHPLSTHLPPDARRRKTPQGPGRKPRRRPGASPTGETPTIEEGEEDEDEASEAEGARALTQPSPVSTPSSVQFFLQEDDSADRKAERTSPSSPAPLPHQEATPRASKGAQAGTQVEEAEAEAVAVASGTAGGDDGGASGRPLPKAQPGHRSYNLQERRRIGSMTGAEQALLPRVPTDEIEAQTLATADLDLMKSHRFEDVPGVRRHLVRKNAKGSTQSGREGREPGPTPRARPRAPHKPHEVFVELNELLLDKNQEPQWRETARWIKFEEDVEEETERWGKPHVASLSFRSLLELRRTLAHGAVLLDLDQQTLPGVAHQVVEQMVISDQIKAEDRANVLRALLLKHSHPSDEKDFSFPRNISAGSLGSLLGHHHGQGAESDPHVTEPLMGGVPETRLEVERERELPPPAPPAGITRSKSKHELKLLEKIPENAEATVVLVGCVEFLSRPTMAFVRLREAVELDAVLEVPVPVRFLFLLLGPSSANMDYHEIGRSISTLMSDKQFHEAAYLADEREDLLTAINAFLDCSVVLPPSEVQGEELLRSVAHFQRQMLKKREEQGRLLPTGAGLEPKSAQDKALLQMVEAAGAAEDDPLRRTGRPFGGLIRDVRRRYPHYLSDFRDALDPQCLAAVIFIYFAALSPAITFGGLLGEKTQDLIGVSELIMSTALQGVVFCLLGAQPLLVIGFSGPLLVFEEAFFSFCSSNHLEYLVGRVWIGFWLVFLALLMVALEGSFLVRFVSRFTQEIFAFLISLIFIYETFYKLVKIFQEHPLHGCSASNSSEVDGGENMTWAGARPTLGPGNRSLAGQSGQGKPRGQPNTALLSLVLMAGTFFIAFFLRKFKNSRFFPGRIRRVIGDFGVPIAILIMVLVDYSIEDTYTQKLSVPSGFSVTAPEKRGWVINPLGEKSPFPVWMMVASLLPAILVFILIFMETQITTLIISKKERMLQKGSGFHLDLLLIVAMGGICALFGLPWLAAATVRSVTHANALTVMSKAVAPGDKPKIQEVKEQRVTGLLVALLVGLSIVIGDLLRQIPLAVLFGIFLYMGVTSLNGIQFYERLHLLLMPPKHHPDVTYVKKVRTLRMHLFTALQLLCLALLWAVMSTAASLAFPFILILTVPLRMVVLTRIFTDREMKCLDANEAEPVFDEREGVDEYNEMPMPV
UniProt Q96EP9: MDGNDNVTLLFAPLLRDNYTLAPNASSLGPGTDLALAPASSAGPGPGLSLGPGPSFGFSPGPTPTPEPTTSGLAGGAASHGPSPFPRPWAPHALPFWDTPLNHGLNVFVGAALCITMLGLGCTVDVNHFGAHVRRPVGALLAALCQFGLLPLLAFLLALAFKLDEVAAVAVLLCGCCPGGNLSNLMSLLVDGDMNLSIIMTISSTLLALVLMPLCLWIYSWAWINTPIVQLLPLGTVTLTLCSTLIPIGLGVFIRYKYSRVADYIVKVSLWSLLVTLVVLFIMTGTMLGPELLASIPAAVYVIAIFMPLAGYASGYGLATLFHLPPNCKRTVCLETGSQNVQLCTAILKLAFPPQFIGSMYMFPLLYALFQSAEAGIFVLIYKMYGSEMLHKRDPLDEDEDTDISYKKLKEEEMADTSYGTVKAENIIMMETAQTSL

Compound: C1CCN(C1)C(=O)NC2=CC=CC(=C2)NC3=NC=C(C(=N3)NCCC4=CN=CN4)Br
Assay: log2 fold change, soluble protein after heating vs DMSO (PISA); higher = thermal stabilisation; K562 cells, 10 uM, 30 min; active = over 0.2 and 3.5 SD of the protein, either way, in both replicates (recomputed)
In short: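 Thermal stability values are relative to control samples and come from duplicates. They are expressed as log2 fold changes. For measurement, K562 cells (2×10^6 cells/mL) received 10 μM compound for 30 min, and aliquots were heated for 3 min over 48°C-58°C, pooled, and extracted at 4°C in PBS with 0.5% NP-40. Soluble protein, the supernatant after 21,000xg for 90 min, was quantified by TMTpro 16plex LC-MS/MS with equalised channel sums.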

log2 fold change, inactive:
SLC12A4 (UniProt Q9UP95) -0.079
SLC25A20 (UniProt O43772) 0.036
SLC18B1 (UniProt Q6NT16) -0.037
SLC31A1 (UniProt O15431) -0.038
SLC2A3 (UniProt P11169) -0.024
SLC4A1AP (UniProt Q9BWU0) -0.032
SLC40A1 (UniProt Q9NP59) -0.135
SLC38A1 (UniProt Q9H2H9) 0.008
SLC30A5 (UniProt Q8TAD4) -0.005
SLC25A16 (UniProt P16260) -0.067
SLC35A4 (UniProt L0R6Q1) -0.025
SLC25A4 (UniProt P12235) -0.019
SLC39A6 (UniProt Q13433) 0.007
SLC25A51 (UniProt Q9H1U9) 0.053
SLC38A2 (UniProt Q96QD8) -0.009
SLC38A7 (UniProt Q9NVC3) 0.011
SLC25A46 (UniProt Q96AG3) 0.057
SLC5A6 (UniProt Q9Y289) -0.041
SLC20A1 (UniProt Q8WUM9) 0.004
SLC43A1 (UniProt O75387) -0.017
SLC1A3 (UniProt P43003) 0.05
SLC30A6 isoform 2 (UniProt Q6NXT4) 0.03
SLC25A37 (UniProt Q9NYZ2) 0.056
SLC7A1 (UniProt P30825) -0.019
SLC2A1 (UniProt P11166) 0.002
SLC3A2 isoform 3 (UniProt P08195) -0.064
SLC33A1 (UniProt O00400) -0.026
SLC3A2 (UniProt F5GZS6) 0.132
SLC44A2 isoform 2 (UniProt Q8IWA5) -0.105
SLC4A2 (UniProt P04920) -0.023
SLC35F6 (UniProt Q8N357) -0.057
SLC37A4 isoform 2 (UniProt O43826) 0.078
SLC10A4 (UniProt Q96EP9) 0.102
SLC25A1 (UniProt P53007) 0.032
SLBP (UniProt Q14493) 0.008
SLC38A9 (UniProt Q8NBW4) -0.042

Already shown: an excerpt of the list.
log2 fold change, inactive:
SLC2A1 (UniProt P11166) 0.002
SLC3A2 isoform 3 (UniProt P08195) -0.064
